## Melanoma cell counts after drug treatment

Values as published with doi:10.1371/journal.pone.0140310, rounded.

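Human melanoma cells were exposed to two drugs together for 72 h in 1,536-well plates and read by automated microscopy after fixing and staining. The read-out is cell count (nuclei) in % of the DMSO control; lower values mean stronger growth inhibition or killing. Every drug was used at one fixed concentration, the higher of two screened. No replicate spread is given; individual values may be noisy.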 Only some of the drugs and lines screened are listed, without regard to their results.

All values are for the listed drug together with everolimus (0.1 µM): CO[C@H]1C[C@@H]2CC[C@@H](C)[C@@](O)(O2)C(=O)C(=O)N2CCCC[C@H]2C(=O)O[C@H]([C@H](C)C[C@@H]2CC[C@@H](OCCO)[C@H](OC)C2)CC(=O)[C@H](C)/C=C(\C)[C@@H](O)[C@@H](OC)C(=O)[C@H](C)C[C@H](C)/C=C/C=C/C=C/1C

{"second drug": "Cc1ccc(Nc2nccc(N(C)c3ccc4c(C)n(C)nc4c3)n2)cc1S(N)(=O)=O at 2 µM", "WM451Lu": 75.4, "WM3619": 75.7}
{"second drug": "Oc1nc(-c2ccc(C(F)(F)F)cc2)nc2c1CSCC2 at 10 µM", "WM451Lu": 63.1, "WM3619": 97.7}
{"second drug": "OCCn1cc(-c2cnc3nnn(Cc4ccc5ncccc5c4)c3n2)cn1 at 5 µM", "WM451Lu": 84.3, "WM3619": 75.5}
{"second drug": "Cc1cc(Nc2cc(N3CCN(C)CC3)nc(Sc3ccc(NC(=O)C4CC4)cc3)n2)n[nH]1 at 0.03 µM", "WM451Lu": 70.7, "WM3619": 66.7}
{"second drug": "O=C(Nc1ccccc1)c1cc([N+](=O)[O-])ccc1Cl at 10 µM", "WM451Lu": 76.2, "WM3619": 48.4}
{"second drug": "N.N.[Cl][Pt][Cl] at 8 µM", "WM451Lu": 79.5, "WM3619": 67.6}
{"second drug": "O=C1NC(=O)/C(=C/c2ccc(-c3ccc(F)cc3O)o2)S1 at 5 µM", "WM451Lu": 81.1, "WM3619": 65.6}
{"second drug": "CC(C)(C)c1cnc(CSc2cnc(NC(=O)C3CCNCC3)s2)o1 at 0.05 µM", "WM451Lu": 68.9, "WM3619": 38.5}
{"second drug": "COC(=O)c1sccc1S(=O)(=O)Nc1ccc(Nc2ccccc2)cc1OC at 5 µM", "WM451Lu": 75.8, "WM3619": 63.8}
{"second drug": "COc1ccc(COc2ccc(Cc3cnc(N)nc3N)cc2OC)cc1 at 5 µM", "WM451Lu": 85.8, "WM3619": 69.9}
{"second drug": "N#CC[C@H](C1CCCC1)n1cc(-c2ncnc3[nH]ccc23)cn1 at 5 µM", "WM451Lu": 77.5, "WM3619": 89.6}
{"second drug": "C/C(O)=C(\\C#N)C(=O)Nc1cc(Br)ccc1Br at 10 µM", "WM451Lu": 80.9, "WM3619": 62.9}
{"second drug": "CC1(C)NC(=O)N(c2ccc([N+](=O)[O-])c(C(F)(F)F)c2)C1=O at 5 µM", "WM451Lu": 90.7, "WM3619": 69.2}
{"second drug": "COc1cc(N2CCC(N3CCN(C)CC3)CC2)ccc1Nc1ncc(Cl)c(Nc2ccccc2S(=O)(=O)C(C)C)n1 at 0.4 µM", "WM451Lu": 57.5, "WM3619": 57.0}
{"second drug": "CC(C)CCN1c2nc(Nc3cc(F)c(O)c(F)c3)ncc2N(C)C(=O)C1C (stereo not shown) at 1 µM", "WM451Lu": 56.8, "WM3619": 56.6}
{"second drug": "Nc1cccc2c1CN(C1CCC(=O)NC1=O)C2=O (stereo not shown) at 5 µM", "WM451Lu": 75.7, "WM3619": 62.6}
{"second drug": "C=CCn1c(=O)c2cnc(Nc3ccc(N4CCN(C)CC4)cc3)nc2n1-c1cccc(C(C)(C)O)n1 at 0.1 µM", "WM451Lu": 65.6, "WM3619": 32.2}
{"second drug": "N#Cc1c(O)c2c(-c3ccc(-c4ccccc4O)cc3)csc2[nH]c1=O at 10 µM", "WM451Lu": 77.7, "WM3619": 81.0}
{"second drug": "Nc1ncn([C@H]2C[C@H](O)[C@@H](CO)O2)c(=O)n1 at 0.5 µM", "WM451Lu": 65.8, "WM3619": 68.7}
{"second drug": "Cc1cn(-c2cc(NC(=O)c3ccc(C)c(Nc4nccc(-c5cccnc5)n4)c3)cc(C(F)(F)F)c2)cn1 at 1 µM", "WM451Lu": 72.0, "WM3619": 67.0}
{"second drug": "Nc1nc(F)nc2c1ncn2[C@@H]1O[C@H](CO)[C@@H](O)[C@@H]1O at 1 µM", "WM451Lu": 76.7, "WM3619": 55.9}
{"second drug": "O=C(CCCCCCC(=O)Nc1ccccc1)NO at 0.4 µM", "WM451Lu": 79.0, "WM3619": 88.0}
{"second drug": "Cc1cc(N2CCOCC2)cc2[nH]c(-c3c(NC[C@@H](O)c4cccc(Cl)c4)cc[nH]c3=O)nc12 at 1 µM", "WM451Lu": 52.9, "WM3619": 59.1}
{"second drug": "O=S(=O)(c1ccccc1)N(CC(F)(F)F)c1ccc(C(O)(C(F)(F)F)C(F)(F)F)cc1 at 7 µM", "WM451Lu": 79.2, "WM3619": 73.8}
{"second drug": "Cn1cnc2c(F)c(Nc3ccc(Br)cc3Cl)c(C(=O)NOCCO)cc21 at 0.075 µM", "WM451Lu": 44.6, "WM3619": 50.7}
{"second drug": "CC1(C)CCC(c2ccc(Cl)cc2)=C(CN2CCN(c3ccc(C(=O)NS(=O)(=O)c4ccc(N[C@H](CCN5CCOCC5)CSc5ccccc5)c(S(=O)(=O)C(F)(F)F)c4)cc3)CC2)C1 at 2 µM", "WM451Lu": 52.6, "WM3619": 53.2}
{"second drug": "CO[C@@H]1[C@H](N(C)C(=O)c2ccccc2)C[C@H]2O[C@]1(C)n1c3ccccc3c3c4c(c5c6ccccc6n2c5c31)C(=O)NC4 at 0.4 µM", "WM451Lu": 69.2, "WM3619": 73.2}
{"second drug": "CS(=O)(=O)CCNCc1ccc(-c2ccc3ncnc(Nc4ccc(OCc5cccc(F)c5)c(Cl)c4)c3c2)o1 at 4 µM", "WM451Lu": 79.1, "WM3619": 54.8}
{"second drug": "C[C@]1(O)C[C@@H](c2nc(-c3ccc4ccc(-c5ccccc5)nc4c3)c3c(N)nccn32)C1 at 2 µM", "WM451Lu": 44.0, "WM3619": 44.4}

Some entries from above, unchanged:

* Nc1ncn([C@H]2C[C@H](O)[C@@H](CO)O2)c(=O)n1 at 0.5 µM | WM451Lu: 65.8; WM3619: 68.7
* CO[C@@H]1[C@H](N(C)C(=O)c2ccccc2)C[C@H]2O[C@]1(C)n1c3ccccc3c3c4c(c5c6ccccc6n2c5c31)C(=O)NC4 at 0.4 µM | WM451Lu: 69.2; WM3619: 73.2